Results from the supplement of paper PMC10849652.
The list shows a part of the results.

Chains of the proteins cited; added tags and fusions are not shown. Lines headed by an entry give the natural chain unless they say otherwise; changes in a name come on top.
UniProt Q5BKX6: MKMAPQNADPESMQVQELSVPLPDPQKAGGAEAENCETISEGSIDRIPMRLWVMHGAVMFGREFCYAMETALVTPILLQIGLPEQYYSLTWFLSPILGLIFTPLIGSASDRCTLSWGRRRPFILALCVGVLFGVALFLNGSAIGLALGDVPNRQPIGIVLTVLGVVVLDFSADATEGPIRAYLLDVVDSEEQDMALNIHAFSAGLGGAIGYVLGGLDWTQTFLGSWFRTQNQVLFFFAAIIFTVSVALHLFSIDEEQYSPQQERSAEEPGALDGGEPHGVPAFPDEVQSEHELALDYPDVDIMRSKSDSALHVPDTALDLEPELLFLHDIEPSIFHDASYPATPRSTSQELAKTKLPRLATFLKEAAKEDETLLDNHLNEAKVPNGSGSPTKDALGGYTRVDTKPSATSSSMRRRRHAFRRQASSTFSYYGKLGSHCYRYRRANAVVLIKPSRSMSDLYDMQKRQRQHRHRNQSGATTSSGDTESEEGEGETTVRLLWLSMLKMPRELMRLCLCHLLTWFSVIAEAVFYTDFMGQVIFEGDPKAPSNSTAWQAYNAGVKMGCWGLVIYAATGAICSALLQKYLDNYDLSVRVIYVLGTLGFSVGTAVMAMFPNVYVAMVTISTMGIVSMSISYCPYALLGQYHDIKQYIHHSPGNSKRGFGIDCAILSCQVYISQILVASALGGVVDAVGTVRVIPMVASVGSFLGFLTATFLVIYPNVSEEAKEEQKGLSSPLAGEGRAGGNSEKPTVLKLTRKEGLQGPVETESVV
UniProt Q96A29: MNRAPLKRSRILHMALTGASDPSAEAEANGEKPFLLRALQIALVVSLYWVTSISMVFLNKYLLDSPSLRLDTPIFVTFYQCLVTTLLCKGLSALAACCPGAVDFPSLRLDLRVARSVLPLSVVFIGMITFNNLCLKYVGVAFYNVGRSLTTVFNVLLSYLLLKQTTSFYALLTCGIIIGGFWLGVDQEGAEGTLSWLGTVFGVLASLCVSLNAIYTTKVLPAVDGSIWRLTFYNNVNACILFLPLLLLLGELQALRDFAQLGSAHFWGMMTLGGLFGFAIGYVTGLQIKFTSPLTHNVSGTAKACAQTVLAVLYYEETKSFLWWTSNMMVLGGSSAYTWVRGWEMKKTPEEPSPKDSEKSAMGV
UniProt P53794: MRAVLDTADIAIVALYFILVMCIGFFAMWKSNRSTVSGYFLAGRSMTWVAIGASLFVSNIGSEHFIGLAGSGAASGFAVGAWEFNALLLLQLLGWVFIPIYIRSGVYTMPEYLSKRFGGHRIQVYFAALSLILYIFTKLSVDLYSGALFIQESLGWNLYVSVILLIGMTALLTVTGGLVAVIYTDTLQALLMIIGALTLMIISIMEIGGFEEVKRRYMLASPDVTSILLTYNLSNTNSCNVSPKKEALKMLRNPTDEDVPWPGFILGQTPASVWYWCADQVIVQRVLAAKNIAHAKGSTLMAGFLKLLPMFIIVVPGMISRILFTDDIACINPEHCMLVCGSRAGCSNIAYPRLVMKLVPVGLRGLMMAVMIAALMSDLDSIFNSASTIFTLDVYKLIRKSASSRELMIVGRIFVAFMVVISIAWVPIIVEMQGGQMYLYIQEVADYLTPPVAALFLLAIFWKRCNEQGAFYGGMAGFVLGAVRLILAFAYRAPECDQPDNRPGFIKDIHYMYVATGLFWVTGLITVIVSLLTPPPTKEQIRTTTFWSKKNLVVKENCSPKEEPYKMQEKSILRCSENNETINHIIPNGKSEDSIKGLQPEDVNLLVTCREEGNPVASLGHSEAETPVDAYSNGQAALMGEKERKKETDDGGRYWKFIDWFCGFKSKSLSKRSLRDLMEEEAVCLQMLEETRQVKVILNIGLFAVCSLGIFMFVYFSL
UniProt Q70HW3: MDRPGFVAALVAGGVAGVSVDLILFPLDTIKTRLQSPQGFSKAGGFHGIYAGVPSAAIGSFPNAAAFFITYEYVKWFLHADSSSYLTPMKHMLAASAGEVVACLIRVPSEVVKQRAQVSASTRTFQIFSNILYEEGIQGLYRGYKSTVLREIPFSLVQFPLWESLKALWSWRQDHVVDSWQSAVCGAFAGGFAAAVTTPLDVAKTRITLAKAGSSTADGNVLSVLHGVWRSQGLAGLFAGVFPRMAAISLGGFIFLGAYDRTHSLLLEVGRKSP
UniProt Q969S0: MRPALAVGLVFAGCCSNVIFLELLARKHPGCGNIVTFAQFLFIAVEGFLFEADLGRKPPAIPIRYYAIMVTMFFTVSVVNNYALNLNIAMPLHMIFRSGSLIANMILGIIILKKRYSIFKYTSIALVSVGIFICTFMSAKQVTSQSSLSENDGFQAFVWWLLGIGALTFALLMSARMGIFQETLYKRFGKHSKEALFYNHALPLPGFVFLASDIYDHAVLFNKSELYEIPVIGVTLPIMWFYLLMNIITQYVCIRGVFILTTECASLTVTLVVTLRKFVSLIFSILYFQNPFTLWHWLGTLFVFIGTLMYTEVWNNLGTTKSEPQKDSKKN
UniProt Q9H1N7: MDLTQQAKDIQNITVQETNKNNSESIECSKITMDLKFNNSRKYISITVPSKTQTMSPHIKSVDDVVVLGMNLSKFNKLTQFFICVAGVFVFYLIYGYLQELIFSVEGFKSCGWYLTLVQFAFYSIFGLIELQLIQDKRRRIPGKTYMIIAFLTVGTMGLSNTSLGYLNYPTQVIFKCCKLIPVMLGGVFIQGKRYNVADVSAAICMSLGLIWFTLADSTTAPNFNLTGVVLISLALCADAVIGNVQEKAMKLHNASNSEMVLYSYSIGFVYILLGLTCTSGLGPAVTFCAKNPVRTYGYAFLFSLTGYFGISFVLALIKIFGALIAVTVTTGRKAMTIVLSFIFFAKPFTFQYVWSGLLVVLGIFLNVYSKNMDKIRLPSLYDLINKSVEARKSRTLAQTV
UniProt Q9H1U9: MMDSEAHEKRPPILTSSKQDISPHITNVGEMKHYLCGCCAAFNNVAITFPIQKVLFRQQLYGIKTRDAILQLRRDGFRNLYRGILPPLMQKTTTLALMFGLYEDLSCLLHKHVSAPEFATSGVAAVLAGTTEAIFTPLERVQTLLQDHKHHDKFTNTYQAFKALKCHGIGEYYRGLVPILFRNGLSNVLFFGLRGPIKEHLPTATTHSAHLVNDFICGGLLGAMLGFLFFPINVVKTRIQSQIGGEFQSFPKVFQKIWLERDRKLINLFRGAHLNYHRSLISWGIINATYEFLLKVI
UniProt O76082: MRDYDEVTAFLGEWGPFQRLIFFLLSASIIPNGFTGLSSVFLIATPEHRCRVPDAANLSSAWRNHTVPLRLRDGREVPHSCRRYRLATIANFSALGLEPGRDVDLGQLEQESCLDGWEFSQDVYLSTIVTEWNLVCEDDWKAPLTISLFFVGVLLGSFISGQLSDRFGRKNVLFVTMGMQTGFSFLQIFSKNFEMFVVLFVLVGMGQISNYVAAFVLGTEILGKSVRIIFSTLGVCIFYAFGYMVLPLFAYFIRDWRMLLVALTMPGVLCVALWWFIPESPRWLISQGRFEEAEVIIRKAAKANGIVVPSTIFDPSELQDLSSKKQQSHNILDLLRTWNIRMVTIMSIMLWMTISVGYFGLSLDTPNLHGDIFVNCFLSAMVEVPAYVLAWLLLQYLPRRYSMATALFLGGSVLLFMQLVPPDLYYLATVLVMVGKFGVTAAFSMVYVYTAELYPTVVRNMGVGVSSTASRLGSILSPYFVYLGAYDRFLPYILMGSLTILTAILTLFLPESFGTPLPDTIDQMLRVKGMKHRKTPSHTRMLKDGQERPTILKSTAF
UniProt P30825: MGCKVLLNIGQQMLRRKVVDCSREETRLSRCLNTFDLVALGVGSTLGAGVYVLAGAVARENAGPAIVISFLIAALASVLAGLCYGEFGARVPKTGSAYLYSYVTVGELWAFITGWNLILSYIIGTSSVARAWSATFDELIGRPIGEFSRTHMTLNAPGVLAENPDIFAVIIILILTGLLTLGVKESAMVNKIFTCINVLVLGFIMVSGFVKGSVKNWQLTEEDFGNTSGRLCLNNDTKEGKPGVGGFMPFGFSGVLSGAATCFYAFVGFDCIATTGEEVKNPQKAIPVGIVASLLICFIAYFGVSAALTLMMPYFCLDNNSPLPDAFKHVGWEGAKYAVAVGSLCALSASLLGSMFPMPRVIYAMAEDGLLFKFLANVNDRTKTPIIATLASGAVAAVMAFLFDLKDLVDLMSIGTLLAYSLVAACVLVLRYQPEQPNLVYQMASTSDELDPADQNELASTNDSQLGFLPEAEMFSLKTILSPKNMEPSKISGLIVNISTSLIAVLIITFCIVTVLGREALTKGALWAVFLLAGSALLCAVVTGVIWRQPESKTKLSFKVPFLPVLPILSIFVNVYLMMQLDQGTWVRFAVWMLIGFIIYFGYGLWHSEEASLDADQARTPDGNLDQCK
UniProt Q6ZP29: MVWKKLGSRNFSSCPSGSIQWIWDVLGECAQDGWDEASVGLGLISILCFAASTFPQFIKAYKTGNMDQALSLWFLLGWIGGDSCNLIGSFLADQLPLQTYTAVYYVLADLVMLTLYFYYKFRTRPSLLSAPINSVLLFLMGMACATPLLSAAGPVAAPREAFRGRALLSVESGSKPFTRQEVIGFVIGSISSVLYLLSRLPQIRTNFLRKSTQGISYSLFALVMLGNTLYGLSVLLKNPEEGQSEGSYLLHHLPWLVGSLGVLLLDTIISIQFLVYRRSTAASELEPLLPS
UniProt Q9Y289: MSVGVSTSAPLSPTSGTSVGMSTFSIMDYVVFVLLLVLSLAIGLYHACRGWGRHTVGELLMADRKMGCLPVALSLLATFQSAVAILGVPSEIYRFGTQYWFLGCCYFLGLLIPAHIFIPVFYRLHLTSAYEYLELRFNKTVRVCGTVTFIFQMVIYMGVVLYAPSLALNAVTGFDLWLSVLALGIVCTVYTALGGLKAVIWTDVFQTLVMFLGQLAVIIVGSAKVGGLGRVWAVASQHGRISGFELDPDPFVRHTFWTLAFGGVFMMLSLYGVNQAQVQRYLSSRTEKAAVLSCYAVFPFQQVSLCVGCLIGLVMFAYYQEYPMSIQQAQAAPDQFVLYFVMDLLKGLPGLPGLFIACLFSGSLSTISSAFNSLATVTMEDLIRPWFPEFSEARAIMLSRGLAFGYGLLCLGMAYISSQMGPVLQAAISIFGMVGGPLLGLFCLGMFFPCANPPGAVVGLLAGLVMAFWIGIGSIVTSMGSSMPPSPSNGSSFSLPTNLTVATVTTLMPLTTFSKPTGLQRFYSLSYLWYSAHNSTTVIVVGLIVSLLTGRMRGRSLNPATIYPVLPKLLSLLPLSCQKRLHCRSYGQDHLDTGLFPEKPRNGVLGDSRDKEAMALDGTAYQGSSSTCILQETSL
UniProt Q5SVS4: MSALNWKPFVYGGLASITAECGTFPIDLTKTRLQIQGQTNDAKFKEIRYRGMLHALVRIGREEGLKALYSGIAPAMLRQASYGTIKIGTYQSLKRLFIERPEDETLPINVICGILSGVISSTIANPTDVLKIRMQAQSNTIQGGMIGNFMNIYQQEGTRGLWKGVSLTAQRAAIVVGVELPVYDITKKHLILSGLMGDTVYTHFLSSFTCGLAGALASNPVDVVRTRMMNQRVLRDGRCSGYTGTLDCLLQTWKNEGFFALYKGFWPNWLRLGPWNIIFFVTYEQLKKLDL
UniProt Q96K37: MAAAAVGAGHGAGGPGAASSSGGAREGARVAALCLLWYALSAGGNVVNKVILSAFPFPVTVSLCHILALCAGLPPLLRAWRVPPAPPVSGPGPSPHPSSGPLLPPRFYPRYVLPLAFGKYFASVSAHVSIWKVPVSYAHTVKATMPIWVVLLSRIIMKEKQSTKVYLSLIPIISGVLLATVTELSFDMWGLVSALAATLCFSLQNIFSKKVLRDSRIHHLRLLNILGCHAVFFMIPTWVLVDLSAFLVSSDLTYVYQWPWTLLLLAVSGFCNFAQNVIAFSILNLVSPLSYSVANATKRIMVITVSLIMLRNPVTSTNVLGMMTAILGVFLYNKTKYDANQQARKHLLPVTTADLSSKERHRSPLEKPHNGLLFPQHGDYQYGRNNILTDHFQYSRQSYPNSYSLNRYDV
UniProt Q96AG3: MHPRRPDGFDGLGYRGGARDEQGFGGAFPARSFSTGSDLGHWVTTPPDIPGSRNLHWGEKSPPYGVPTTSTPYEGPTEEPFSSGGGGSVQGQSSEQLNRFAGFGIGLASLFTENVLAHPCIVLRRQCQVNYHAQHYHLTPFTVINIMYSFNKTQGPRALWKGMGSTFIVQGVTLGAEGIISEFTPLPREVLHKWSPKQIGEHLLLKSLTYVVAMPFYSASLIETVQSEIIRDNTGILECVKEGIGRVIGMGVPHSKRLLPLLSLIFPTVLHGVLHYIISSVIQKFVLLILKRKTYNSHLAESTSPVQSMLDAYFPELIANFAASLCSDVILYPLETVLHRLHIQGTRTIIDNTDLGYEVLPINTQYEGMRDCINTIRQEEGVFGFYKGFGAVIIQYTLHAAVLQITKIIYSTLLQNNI
UniProt O15431: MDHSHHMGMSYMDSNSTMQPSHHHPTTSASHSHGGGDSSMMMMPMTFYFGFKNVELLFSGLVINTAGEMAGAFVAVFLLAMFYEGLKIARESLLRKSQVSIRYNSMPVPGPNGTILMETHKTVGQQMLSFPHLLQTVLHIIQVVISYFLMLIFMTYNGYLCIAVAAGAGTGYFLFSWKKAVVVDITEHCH

Compound: Cn1cc(CNCC2CCN(c3ncc(C(=O)NO)cn3)CC2)c2ccccc21 [quisinostat]
Experiment: log2 fold change, soluble protein after heating vs DMSO (PISA); higher = thermal stabilisation; K562 lysate, 10 uM; active = over 0.2 and 3.5 SD of the protein, either way, in both replicates (recomputed)
Procedure, shortened: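 Soluble protein was defined as the supernatant remaining after 21,000xg for 90 min, following pooling of heated aliquots and adjustment to 0.5% NP-40 at 4°C. Before that, crude K562 extract at 1 mg/mL protein in PBS pH 7.4 with 1 mM MgCl2 was treated with 10 μM compound for 30 min and heated for 3 min across 48°C-58°C. Quantification used TMTpro 16plex LC-MS/MS with channel sums equalised, and values are log-two fold changes in thermal stability relative to solvent controls from duplicates.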

log2 fold change, inactive:
SLC4A1 (UniProt P02730) 0.026, SLC45A4 isoform 3 (UniProt Q5BKX6) -0.123, SLC35C1 (UniProt Q96A29) -0.084, SLC39A14 (UniProt Q15043) -0.018, SLC7A11 (UniProt Q9UPY5) -0.011, SLC5A3 (UniProt P53794) -0.096, SLC22A23 (UniProt A1A5C7) 0.056, SLC25A33 (UniProt Q9BSK2) 0.04, SLC25A44 (UniProt Q96H78) -0.025, SLC25A26 (UniProt Q70HW3) -0.184, SLC35B4 (UniProt Q969S0) -0.165, SLC25A17 (UniProt O43808) -0.125, SLC35B3 (UniProt Q9H1N7) -0.223, SLC25A51 (UniProt Q9H1U9) -0.024, SLC26A2 (UniProt P50443) -0.072, SLC43A1 (UniProt O75387) 0.053, SLC29A2 (UniProt Q14542) -0.242, SLC22A5 isoform 3 (UniProt O76082) 0.129, SLC9A6 isoform 2 (UniProt Q92581) 0.036, SLC52A2 (UniProt Q9HAB3) -0.108, SLC7A1 (UniProt P30825) 0.027, SLC7A6 (UniProt Q92536) -0.022, SLC39A1 (UniProt Q9NY26) 0.075, SLC66A1 (UniProt Q6ZP29) 0.132, SLC5A6 (UniProt Q9Y289) -0.004, SLC25A30 (UniProt Q5SVS4) -0.092, SLC35E1 (UniProt Q96K37) -0.088, SLC25A32 (UniProt Q9H2D1) -0.015, SLC9A8 isoform 2 (UniProt Q9Y2E8) -0.041, SLC2A4 (UniProt P14672) -0.066, SLC30A6 isoform 2 (UniProt Q6NXT4) -0.048, SLC25A46 (UniProt Q96AG3) -0.063, SLC31A1 (UniProt O15431) -0.007, SLC39A7 (UniProt Q92504) -0.06, SLC9A7 (UniProt Q96T83) -0.251
